Among all 310,000 compounds or so, about 17,000 (5.5%) were called active. This list was built around the results that the source calls inconclusive (neither active nor inactive); the mix of calls is not that of the screen. Calls follow the shape of the dose curve; as a rule, active = well fitted inhibition curve with a large enough effect; inconclusive = small, poorly fitted or top-dose-only effect, or effect the other way; inactive = no such curve, though single readings can be large or run the other way. Where the call is inconclusive, the potency comes from a doubtful curve fit.
Biological target: Nuclear receptor ROR-gamma (Mus musculus) (UniProt P51450)
Test: qHTS for inhibitors of ROR gamma transcriptional activity; also: nearly all actives have a fitted effect of over 60% in size
Details: Drosophila S2 Gal4-RORgamma UAS-luciferase reporter, 20 h; activity change, negative = inhibition: at 53.6 µM (top of the series)
Method in brief: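 Luminescence from a UAS-regulated Photinus luciferase reporter in stably transfected Drosophila Schneider cells is measured; decreased signal marks ROR gamma inhibition. Fusion expression is induced by 700 uM copper sulfate for 20 hr.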
% is scaled to controls: 0 for no effect and ±100 for the full control effect; potency is read from the fitted curve at half-maximal effect.

Protein sequences, listed by entry. Tags and fused reporters are not part of them. Lines headed by an entry give the natural chain unless they say otherwise; changes in a name come on top.
UniProt P51450: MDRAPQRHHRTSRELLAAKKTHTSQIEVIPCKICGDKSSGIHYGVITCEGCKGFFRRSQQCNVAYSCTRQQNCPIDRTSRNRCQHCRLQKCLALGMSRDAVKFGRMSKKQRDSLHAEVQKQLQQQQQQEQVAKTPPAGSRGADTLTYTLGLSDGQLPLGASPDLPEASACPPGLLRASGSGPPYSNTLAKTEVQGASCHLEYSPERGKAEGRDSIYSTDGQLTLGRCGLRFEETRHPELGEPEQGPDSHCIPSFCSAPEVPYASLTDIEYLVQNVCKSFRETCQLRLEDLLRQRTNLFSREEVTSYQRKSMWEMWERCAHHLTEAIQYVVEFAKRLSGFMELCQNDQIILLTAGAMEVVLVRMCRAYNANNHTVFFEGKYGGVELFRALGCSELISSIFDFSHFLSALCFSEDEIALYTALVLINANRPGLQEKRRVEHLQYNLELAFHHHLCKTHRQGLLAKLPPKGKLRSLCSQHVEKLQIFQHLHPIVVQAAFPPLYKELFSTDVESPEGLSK

Potency, active:
Cc1ccc(N/C=C/C(=O)c2cccs2)cc1C 12.6 µM
COC(=O)N/N=C/c1cc(Br)ccc1O 7.08 µM
CCCC[C@@H]1CNC(=S)N1CCCC 2.82 µM
Cc1ccc(NC2=C(Cl)C(=O)OC2OC(=O)c2ccco2)cc1 (stereo unspecified) 11.2 µM
COc1ccc(S(=O)(=O)N2CCCCCC2)cc1C(=O)N1CCCCC1 1.41 µM
S=C(NCc1ccco1)Nc1ccc(Oc2ccc(Cl)cc2)cc1 2.82 µM
CCN1CCN(C(=S)NC(=O)c2cccs2)CC1 6.31 µM
CCc1ccc(/C=N/n2c(C3CCCCC3)n[nH]c2=S)cc1 3.55 µM
COc1ccc(N2C(=O)CC(Sc3nc4ccccc4s3)C2=O)cc1OC (stereo unspecified) 6.31 µM
Cn1c(-c2ccc(C(C)(C)C)cc2)n[nH]c1=S 3.16 µM

Potency, inconclusive:
O=C(NCC1CCCO1)C12CN(Cc3ccccc3)CC1C(c1cccc([N+](=O)[O-])c1)=NO2 (stereo unspecified) 0.126 µM [inhibitor, full curve, poor fit]
COC(=O)c1sc(N)c(C(=O)OC)c1CSc1nnnn1C 35.5 µM [inhibitor, single point]
C=CCOc1nc2c(c(=O)n(C)c(=O)n2C)n1Cc1ccccc1 4.47 µM [activator, partial curve, poor fit]
COc1cc2c(cc1NC(=O)C(C)N1CCN(S(=O)(=O)c3ccccc3[N+](=O)[O-])CC1)oc1ccccc12 (stereo unspecified) 20 µM [inhibitor, single point]
COCCN(CCOC)c1nc(-c2ccccc2)nc2ccccc12 2.82 µM [activator, partial curve]
Cc1cc(C)nc(NS(=O)(=O)c2ccc(NC(=O)c3ccc4c(c3)OCO4)cc2)n1 4.47 µM [activator, full curve, poor fit]
CC1OC(OC2C(OC3C(O[C@H]4CC[C@]5(C)C6C=C[C@]78OC[C@@]9(CC[C@@H](C)[C@H](C)C97)[C@H](O)C[C@@]8(C)[C@]6(C)CC[C@H]5C4(C)C)OC(C)C(O)C3O)OC(CO)C(O)C2O)C(O)C(O)C1O (stereo partly specified) 11.2 µM [inhibitor, single point]
CCCSc1nn2c(=O)c3ccccc3nc2s1 1.78 µM [activator, partial curve]
COc1cc(NC(=O)c2ccc(F)cc2)c(OC)cc1Cl 3.98 µM [activator, single point]
Cc1nn(-c2ccccc2)c(C)c1NC(=O)COc1ccc(F)cc1Cl 10 µM [activator, partial curve]
CCN(CC)c1ccc(/C=C(\C#N)C(N)=S)cc1 8.91 µM [inhibitor, partial curve]
COc1ccc(C(=O)NC2CCCc3c2cnn3-c2cccc(C)c2C)o1 (stereo unspecified) 35.5 µM [activator, single point]
c1ccc(COc2ccc(OCCOCCn3cncn3)cc2)cc1 0.562 µM [activator, full curve, poor fit]
COC(=O)N/N=C/c1cn(CCOc2ccccc2)c2ccccc12 0.251 µM [activator, full curve, poor fit]
COCCCN(C(=O)c1ccco1)c1nc(-c2ccc(OC)cc2)cs1 14.1 µM [activator, partial curve]
CCOCC(=O)Nc1ccc(S(=O)(=O)NCCc2ccccc2)cc1 35.5 µM [activator, single point]
CCC1(C)Cc2ccccc2-c2[nH]c(=S)[nH]c(=O)c21 (stereo unspecified) 20 µM [inhibitor, single point]
O=C(Cn1ccc(C(F)(F)F)n1)N/N=C/c1cccs1 20 µM [inhibitor, single point]
CCCSc1nnc(CNS(=O)(=O)c2ccc(C)cc2)n1C 35.5 µM [inhibitor, single point]
Cc1ccccc1NC(=S)N(C)Cc1cccs1 20 µM [inhibitor, single point]
O=C(/C=C/c1ccc(-c2ccccc2)o1)c1ccccc1 35.5 µM [inhibitor, single point]
COc1ccc(CNc2ncncc2-c2cccc(C#N)c2)c(OC)c1 11.2 µM [activator, single point]
Cc1cc(C)n2nc(CC(=O)NNC(=O)c3ccc(N(C)C)cc3)nc2n1 14.1 µM [inhibitor, single point]

For reference, some entries already given:
Potency, inconclusive:
CCCSc1nn2c(=O)c3ccccc3nc2s1 1.78 µM [activator, partial curve]
COc1cc(NC(=O)c2ccc(F)cc2)c(OC)cc1Cl 3.98 µM [activator, single point]

Next part.

Activity change, negative = inhibition, inactive:
O=c1cc(CN2CCN(c3ccccc3)CC2)c2cc(O)c(-c3ccccc3)cc2o1 22.9%
COc1ccc(/C=C/C(=O)N2CCN(c3ccccn3)CC2)c2ccccc12 16.8%
CCOC(=O)C1=C(c2ccccc2)ON(C)C1c1ccccc1 (stereo unspecified) -5.79%
Cc1cc(NS(=O)(=O)c2ccc(NC(=O)CSc3nc4sc(C)c(C)c4c(=O)[nH]3)cc2)no1 12.5%
Fc1ccccc1-c1nc(NCCCN2CCOCC2)c2ccccc2n1 29.9%
Cc1ccc2occ(/C=N/NC(N)=S)c(=O)c2c1 -32.5%
Cc1c(N(C)S(=O)(=O)c2cccc(C(=O)NC(C)C)c2)c(=O)n(-c2ccccc2)n1C 40%
CC[C@@H](c1ccccc1)n1c(=O)n2n(c1=O)[C@H]1[C@H](O)[C@H]3O[C@@H]3/C(=N/OCc3ccccc3)[C@@H]1CC2 -1.56% [at 10 µM]
OCCCc1nc2n(n1)C(c1ccccc1)C=C(c1ccc(F)cc1)N2 (stereo unspecified) 25.8%
O=C(NCCC1=CCCCC1)c1cc(COc2ccc(F)cc2Cl)on1 8.02%
COc1ccc(C)cc1S(=O)(=O)N(CC(=O)Nc1cc([N+](=O)[O-])ccc1C)c1ccc(C)c(C)c1 -8.44%
CC(=O)Nc1ccc(S(=O)(=O)N[C@@H](C)C(=O)OCc2ccc(Cl)cc2)cc1 -5.61% [at 10 µM]
CCOC(=O)C1(Cc2ccccc2C)CCCN(C(=O)c2ccc3nccnc3c2)C1 (stereo unspecified) 20.7%

— PubChem BioAssay AID2551 (National Center for Advancing Translational Sciences (NCATS), 2010)
